The target in the test is S100A10 (mouse (endogenous in lung tissue of AC70 hACE2 Tg mice)) (UniProt P08207). Put plainly: co-IP; anti-S100A10 antibody [EPR3317] immobilised on AminoLink Plus Coupling Resin; pre-cleared lung tissue lysates of Mock and SARS-CoV-2-infected (4 d.p.i.) AC70 hACE2 Tg mice, incubated overnight at 4°C; blot with anti-ANXA2 antibodies.

By UniProt entry, the sequences of proteins in these tests, tags left out.
UniProt P08207: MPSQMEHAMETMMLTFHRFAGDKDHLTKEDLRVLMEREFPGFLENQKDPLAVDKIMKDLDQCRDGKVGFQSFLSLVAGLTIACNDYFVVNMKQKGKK
UniProt P07356: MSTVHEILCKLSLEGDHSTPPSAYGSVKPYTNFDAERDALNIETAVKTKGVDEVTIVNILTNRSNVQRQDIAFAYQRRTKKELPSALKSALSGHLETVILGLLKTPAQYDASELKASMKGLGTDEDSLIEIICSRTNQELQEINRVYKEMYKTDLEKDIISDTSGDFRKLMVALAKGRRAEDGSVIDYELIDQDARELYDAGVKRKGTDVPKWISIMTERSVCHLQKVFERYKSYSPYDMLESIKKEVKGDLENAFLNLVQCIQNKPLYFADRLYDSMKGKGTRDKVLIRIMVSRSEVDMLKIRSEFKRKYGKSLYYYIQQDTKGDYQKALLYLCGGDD

No constants are given. Whether binding was seen depends on the method and setting. In cells and extracts the contact can be indirect. Some binding calls cover weakened binding; strength is not graded here.

Take Annexin A2 (from UniProt P07356 1-339): the binding result was “binds”.
